Among the data in PubChem BioAssay AID1508600 (Functional Genomics Laboratory (NCATS/FGL), 2020) are z-score values, retold here.

Among all 53,000 sequences or so, about 3,700 (7%) were called active.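 The calls were made as follows: active = gene knockdowns whose robust z-score for IL-1 alpha signal is at least 2 or at most -2, so actives lie on both sides; inactive = the rest.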 Some of the results follow.

The experiment in a line: Components of the Cytosolic LPS Sensing Pathway: Gene Identification via Genome-wide siRNA Screen.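 Also: robust z of the log signal after scaling to non-targeting control siRNA wells of the plate.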 Particulars: RAW264.7 macrophages, IL-1a HTRF, actives lie on both sides, screened at 100 nM (by protocol), cells primed 5 h with Pam3CSK4 first. A digest of the protocol: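 IL-1a HTRF of supernatants after 24 hour LipidA transfection of Pam3CSK4-primed (5 hours) RAW264.7 cells, 48h post-siRNA transfection (100 nM). Scores: percent of plate negative-control median, then log-based robust z-score.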
For orientation: TR-FRET usually uses a lanthanide donor and a delayed reading to cut background.
Take GGAAAAGGAAAGGACUAAGTT against Mdk: the z-score is inactive: -0.689.

Regarding GGCAACACUGUUUUAACCGTT against Agbl1, the z-score was inactive: -0.212.

In the case of GCAUGUAGUAUGGUAACACTT against Akr1b7, the z-score was inactive: -1.78.

Turning to GGGAUAAGACAGGAGACUUTT against Slc16a11, the z-score was inactive: 0.227.

Turning to GGACUUCCAUAAGAUGAAATT against Nrap, the z-score was inactive: -0.542.

In the case of GGCAAUUGCUGGGUUUCCATT against Marcksl1, the z-score was inactive: 1.08.

Regarding UUGGUUCAACCUCAUCAUATT against Olfr869, the z-score is active: 2.07.

Turning to CGAUCUAGUCAACAUCAAATT against Fcer2a, the z-score was inactive: 1.16.

Turning to GGUCGAUAUAAUCCUAGAGTT against Chrna5, the z-score is inactive: -0.516.

For GCCAUACGCUGACCUUUCATT against Sp7, the z-score is inactive: -1.82.

Take GCUAGUAUCAUGGAACCUCTT against Gpat3: the z-score was inactive: 0.371.

Turning to CCAACACCUAAUAUUACUCTT against Lrig2, the z-score was inactive: 0.339.

CCACCUGUCGAGAUGUCGUTT against Ppp1r13b: the z-score is inactive: 1.1.

As to GGUGUUGUGCACAUAUAUGTT against Tom1l2, the z-score is inactive: -1.62.

Consider GGUUUUGUAGGAGUCUCUCTT against Vmn1r54, for which the z-score was inactive: 0.247.

GCCACAAGUAGUUGUGGUATT against Akr1c20: the z-score is inactive: 0.376.

As to “GGUCACGUCAGCAAAGCAATT against B930095G15Rik”, the z-score is active: -2.73.

GGAAUUCAGCGAUUUAUACTT against Smox: the z-score was inactive: -0.109.

For the sequence GGACCCUCUGGAUUAAUCGTT against Mrpl20, the z-score was inactive: 0.0985.

On to GGAAUUGGGUAGUACAAAATT against Irak1, for which the z-score is inactive: 0.282.

For GGGUGAUUUCUAUUCACUATT against Pam, the z-score was inactive: -0.633.

As for GGAAGUUUACAGCUUUGAATT against Ccdc38, the z-score was inactive: 0.543.

Consider GGAAGAAGUAGACCUGUCUTT against Aar2, for which the z-score is active: -2.36.

GGAUGGAAAAUAAAACAGGTT against Hoxb7: the z-score was inactive: -0.651.

Regarding GGAUCCUCUUGAUCAAGCUTT against Vps53, the z-score was inactive: -0.891.

On to CUUACAGUUGCGUCCACUGTT against Ypel4, for which the z-score was inactive: -0.229.

On to GGAUGACCUCAAGUAUAAGTT against Mob3b, for which the z-score is inactive: -0.37.

Consider CGAAGACCCUCAUAUAGAATT against Crem, for which the z-score is inactive: -0.0829.

With GCUAUUGGGACUUAGAACATT against Slc26a9, the z-score is inactive: 0.191.

With GCAUCCCAGAUAUUGAGCATT against Arrdc1, the z-score is active: 2.52.

Turning to GGAGUCCUAUGUGCUGAAATT against Treml4, the z-score was inactive: 0.555.

GGUGAACGAUGUCAAUAAGTT against Pdxk: the z-score was inactive: -0.318.

GACAGUUACCAACUUCUACTT against Kiss1r: the z-score was inactive: -0.202.

For the sequence GCUCUUACAUAUCAAGCUUTT against Styxl1, the z-score is inactive: -0.352.

As for GGUUCUAUACAAUCCUGAATT against Obi1, the z-score was inactive: 0.548.

GUUCCCAAAGUCUCAUGUUTT against Mef2b: the z-score was inactive: -0.564.

Turning to GCCACGGAAAAUAGGGAAGTT against Irf7, the z-score was inactive: 0.998.

Take GGUUCGGGAGACACCUCUUTT against Fam53b: the z-score is inactive: -0.338.

Consider GCUACGAGCAGUUUUUAUUTT against Ptgs1, for which the z-score is inactive: 0.885.

Regarding GCAAGUUGGCGUGAAGAUATT against Col9a1, the z-score is inactive: -0.343.

Regarding CGGUAAACUGGUUUUACUUTT against Otulin, the z-score is inactive: 1.8.

For CGGGCUAUGGAGUUGAAGATT against Noa1, the z-score is inactive: -0.0994.

For the sequence CGAUCUUGACCAAAACAAUTT against Fbxo30, the z-score was inactive: -1.49.

Consider CGACCUUCAAGGCAAUAUUTT against Anapc2, for which the z-score was inactive: -0.573.

As to CCCGAAAGACAUGUAUUCGTT against Mrps18b, the z-score is inactive: -0.38.

With CGUGGAAAAUGAUCAACACTT against LOC434320, the z-score was inactive: -1.42.

Turning to GAGCUCUGCAUUUGGUUAGTT against Fam98b, the z-score was inactive: 0.0904.

For the sequence CCAGGAAAGAUAUUUGAUGTT against H2-T3, the z-score is inactive: -0.609.

As to “CCGUCAGGUCUGCAUUCAGTT against Olfr105-ps”, the z-score was inactive: -0.213.

For GGUAAAAAGGGAUCACUCUTT against Igfbp7, the z-score is inactive: -0.489.

Turning to GGGUCUGCCGUCAUCCAUATT against Acp6, the z-score is inactive: -0.563.

For the sequence GGCUCAGGCAUUGUAACCATT against Dnm3, the z-score is inactive: -0.177.

As for GGCAGAGAAUUUUUUGUGGTT against Ddah1, the z-score is inactive: -0.938.

On to GCCAUGUUUUAGACCUCCUTT against Mms22l, for which the z-score was inactive: 0.745.

In the case of CCGAUGAUCAGAGAAACAGTT against Prkar2b, the z-score was inactive: -1.25.

As to CGCCCAUGAUGAAUCCUUUTT against Olfr1416, the z-score was inactive: 0.843.

Take GGAAUACCUUGGAUGGCUATT against Nfe2l1: the z-score is inactive: -0.39.

For CGUAACACUGCCUUUGAAUTT against Ube4b, the z-score is inactive: -0.524.

For the sequence GGCUACGUCGAUGUCUCAATT against Fam171a2, the z-score is inactive: -0.92.

GGUCAAGAGAAUGUACAGATT against Cdc42se2: the z-score is inactive: 1.58.

As to CCUCAAGUCUAAUUCUCAUTT against Ccdc58, the z-score was inactive: -1.02.

Regarding CGGAAACCACCUCUGCUAUTT against Ctnnd2, the z-score is inactive: 0.566.

For CCAAGUGACUUUAAGGAUGTT against Pcolce, the z-score was inactive: 0.759.

Regarding GGAAUUUCGACCAUCGUCUTT against Tmem54, the z-score was inactive: -0.0113.

Consider CCGCUUGAAUCUUAGUGAUTT against Hoxc12, for which the z-score was inactive: -1.21.

Regarding CCAAGAACUGCUCAUUCAGTT against Nrsn2, the z-score was inactive: 1.06.

As for GGAAUUCCUGUUCGAUUUGTT against Elp1, the z-score was inactive: 1.27.

Consider GGUUCUGAUAUACGUGUUUTT against Rraga, for which the z-score was inactive: 0.057.

With GCUGCCUCAUUUCUGGAUGTT against Klk11, the z-score is inactive: 1.1.

On to GCCUCAUUAUGAGUUGGCATT against Olfr1419, for which the z-score is active: -2.51.

On to GGUGAUGGCUGUUCCUUUCTT against Zdhhc2, for which the z-score is inactive: 0.533.

For the sequence GCACUCCAAGAUAUUAUGUTT against Tbc1d22b, the z-score is inactive: 0.514.

On to GGAAGAUGUGUUUCUGCCCTT against Sergef, for which the z-score was inactive: -1.32.

GGAGAUUGGGAUCAAUUAGTT against Sall3: the z-score was inactive: 0.576.

Take GGUGACACACUAGUAGACUTT against Sclt1: the z-score was active: 3.47.

For GCACUACCGCAUCAUGUAUTT against Csk, the z-score was inactive: -1.24.

For CUAUCUGACCAUAAUGAAATT against Olfr1248, the z-score was inactive: 0.000293.

As to GGCACCUAUCACAUCUAUCTT against Tex21, the z-score was inactive: -0.0614.

In the case of GGACAUGGCUUUAUAACCUTT against Dcdc5, the z-score is inactive: 0.256.

In the case of CCACGCUCUCAAGGUAUAGTT against Cyp2d22, the z-score was active: -2.81.

As for GGCAUUCAUGACAAUGGCUTT against Rab1b, the z-score is inactive: -1.89.

As for CCAUGGACCAAGAUCCAGATT against Rrp12, the z-score is inactive: 1.06.

As for GCUCGACCAAAAAACAACCTT against Emilin2, the z-score was inactive: 0.831.

GCUCAAAGGACCUCUGAGCTT against Slc29a2: the z-score is inactive: -1.28.

Turning to CGAGUGUAAUGUGGUGGAATT against Npm3, the z-score is inactive: 0.211.

As to “GGUACGAAGGAAAAUUUACTT against 2810407A14Rik”, the z-score was active: 2.72.

Turning to “GGACAACUCAAUUCUAAAATT against 4921522P10Rik”, the z-score is inactive: -1.22.

For the sequence GCCCAACCAGUUUGAAUCUTT against Ubqln4, the z-score is inactive: 1.25.

GGUCUUAAGUUCAGAACCCTT against Natd1: the z-score was inactive: -0.112.

As for CGAAGGAUUCUUUUGUACUTT against Mib1, the z-score was inactive: 1.18.

On to GCUUGAUGGACAGUGACGATT against Dhrs3, for which the z-score was inactive: -1.14.

With GGAACUGCAUCUGCACUAATT against Olfr683, the z-score is inactive: 1.53.

For GGAGACAUGAUUAAAGCUATT against Ubxn10, the z-score was inactive: -1.31.

Turning to GGAUCUCAUACAGAAUCCGTT against Haus4, the z-score is inactive: 0.216.

On to GGUGAUAACUCCGGGCCAATT against Fam3b, for which the z-score was active: 2.32.

For GGGCUGGAGUCUGAUACAUTT against Rbm5, the z-score was active: 3.39.

Consider GGUCACUAGUGACAAAUGUTT against Fmo4, for which the z-score is inactive: -0.768.

For the sequence CCCACUUUCUUUGAUAACUTT against Bcl2l11, the z-score is inactive: 0.585.

Turning to GGCAGAUCUAGGAUAGAAGTT against Fbxo44, the z-score is inactive: -0.339.

Take AAUAACAGGCCGGUCGAGATT against Fbrsl1: the z-score was inactive: 0.615.

In the case of GGUCGUAAAAAUUGAAAUCTT against Lhcgr, the z-score was inactive: 0.169.

Turning to GGCCAAGAUGACCAUCUCUTT against Cspg4, the z-score is inactive: 0.973.

As to GGUUCAAGAAGUUUUGCUCTT against Tnfrsf9, the z-score is inactive: 0.44.

As to GCACUGAUGUUAUCCGAAGTT against Ngrn, the z-score was inactive: -0.0153.

With CCCACAGUAAAUUCAACGGTT against Gm5069, the z-score was inactive: 0.00754.

As to CCAAGUAAGGACUAUAGAGTT against Gpatch2, the z-score was inactive: -1.02.
